Data on 61 compounds can be found in PubChem BioAssay AID493014 (National Center for Advancing Translational Sciences (NCATS), 2011).

The list shows a part of the results. The main result of the screen is listed elsewhere. These columns were measured beside it and carry no call. Most of these compounds were active or inconclusive in the main read-out, so they are no random draw. Potencies come from curve fits of mixed quality, noted in brackets.

The assay is described as follows: qHTS Assay to Find Inhibitors of Chronic Active B-Cell Receptor Signaling. To be noted: ABC-DLBCL IkBa-CBG/CBR reporter, luminescence ratio (green luciferase fused to IkBa over red control in TMD8 lymphoma cells), 4 h. In outline: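 TMD8 human ABC-DLBCL cells with doxycycline-inducible IκBα–green luciferase fusion and unfused red luciferase, in 0.5% FBS medium; compounds up to 46 uM, 4 h at 37C. Green/red luminescence ratio, filter-overlap corrected, fitted to concentration-response curves.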
Background: qHTS replaces the single test concentration by a dilution series.

Setting [1] is: measured here: CBR red luminescence, cell number.
[2] abbreviates: measured here: IkBa-CBG green luminescence.

In general, AC50 refers to the concentration giving half of the maximal activity seen.

Turning to `C#CCn1cc(/C=N/NC(=O)COc2cccc3cccnc23)c2ccccc21`, the AC50 under setting [1] is 29.1 µM [rising, single point].
As to `O=c1[nH]c(-c2ccccc2)nnc1-c1ccccc1`, the AC50 under setting [1] was 0.355 µM [falling, full curve].
On the same count and under the same terms, for `CCCOC(=O)c1ccc(-n2nnnc2SCC(=O)N2CCCCC2)cc1` the value was 10 µM [falling, partial curve]; for `O=C(N/N=C/c1ccccc1O)c1cccc(C(F)(F)F)c1`, 1.84 µM [falling, partial curve, poor fit]; for `O=C(NCC1CCCN1S(=O)(=O)c1cccs1)C(=O)Nc1ccc(F)cc1` (stereo not drawn), 8.2 µM [falling, partial curve].
On to `C=C1C(=O)O[C@H]2C[C@]3(C)C([C@@H](OC(=O)/C(C)=C/C)[C@H]12)[C@](C)(O)CC[C@H]3O` (stereo partly drawn), for which the AC50 under setting [1] was 8.91 µM [falling, partial curve, poor fit].
Consider `CCN(C[C@H]1N[C@@](Cc2ccccc2)(C(=O)OC)[C@H]2C(=O)N(C)C(=O)[C@@H]12)S(=O)(=O)c1ccc(OC(F)(F)F)cc1`, for which the AC50 under setting [1] is 29.1 µM [falling, single point].
For the compound `Nc1ccc(-c2nc3cc(N)ccc3s2)cc1`, the AC50 under setting [1] was 0.794 µM [rising, full curve, poor fit].
With `C/C(=N\NC(=O)c1c[nH]c2ccccc12)c1ccccn1`, under setting [1], the AC50 was 12.6 µM [falling, partial curve, poor fit].
In the case of `CCCCn1c(CCC)nc([N+](=O)[O-])c1Sc1ccc(Cl)cn1`, the AC50 under setting [1] was 13 µM [falling, partial curve].
For the compound `COCCNC(=O)/C(C#N)=C/c1cccc(/C=C(\C#N)C(=O)NCCOC)c1`, under setting [2], the AC50 is 18.4 µM [falling, single point].
Turning to `C[C@H](CO)N1C[C@H](C)[C@@H](CN(C)S(=O)(=O)c2ccccc2)Oc2ccc(NC(=O)C3CC3)cc2C1=O`, the AC50 under setting [1] is 0.0184 µM [rising, full curve].
On the same count and under the same terms, in the case of `Cc1nc(-c2nnc(-c3ccccc3)o2)c(C(F)(F)F)o1` it was 35.5 µM [falling, single point]; in that of `C=CCOc1ccc(CN(C)C(=O)CNC(=O)c2ccc(-c3ccccc3)cc2)cc1`, 11.2 µM [falling, partial curve]; in that of `O=C(Nc1cccc(NC(=O)c2ccc(-c3ccc(Br)cc3)o2)c1)c1ccco1`, 8.2 µM [falling, partial curve].
As to `O=C(Nc1cccc(S(=O)(=O)N2CCOCC2)c1)c1ccc(N2CCCC2=O)cc1`, the AC50 under setting [1] was 6.51 µM [rising, single point].
Take `O=C(CSc1nnc(Cc2cccs2)n1C1CCCCC1)N1CCCc2ccccc21`: the AC50 under setting [1] is 16.4 µM [falling, single point].
With `CC(=O)CCc1c(C)c2cc(C)ccc2[nH]c1=O`, under setting [1], the concentration at half-maximal activity (AC50) is 18.4 µM [rising, partial curve, poor fit].
In the case of `CCCOc1ccc(-c2nn(-c3ccccc3)cc2/C=C2\SC(=S)N(C3CCS(=O)(=O)C3)C2=O)cc1` (stereo not drawn), under setting [1], the concentration at half-maximal activity (AC50) is 35.5 µM [rising, single point].
Consider `COc1cc(Br)ccc1C1CC(=O)C(C)C(c2ccc(Br)cc2OC)N1` (stereo not drawn), for which, under setting [2], the AC50 was 20 µM [rising, partial curve, poor fit].
On to `CCn1c(CC(=O)Nc2ccccc2)nnc1SCC(=O)Nc1ccccc1C(=O)OC`, for which, under setting [1], the AC50 was 6.51 µM [rising, single point].
Take `COc1cc(C(=O)NC(=S)NCc2ccco2)cc(OC)c1OC`: the AC50 under setting [1] is 3.16 µM [falling, full curve, poor fit].
With `Cc1ccc2c(c1)c(N=Nc1cccc(C(=O)O)c1)c(O)n2C`, the AC50 under setting [1] was 2.24 µM [falling, full curve].
On the same count and under the same terms, in the case of `c1ccc(-c2cc(-c3nc4ccccc4[nH]3)c3ccccc3n2)cc1` it was 10.3 µM [falling, single point]; in that of `CSc1nc(Oc2ccccc2)c2sccc2n1`, 29.1 µM [rising, single point].
For `COc1cc(C(=O)OCC(=O)N(C)C)cc(NC(=O)c2ccco2)c1OC`, the AC50 under setting [1] was 35.5 µM [falling, partial curve, poor fit].
For `CC(=O)Oc1ccc2nc(/C=C/c3ccccc3)oc(=O)c2c1`, under setting [1], the AC50 is 0.282 µM [falling, full curve, poor fit].
With `Cc1ccc(-c2nn(-c3ccccc3)cc2/C=N/NC(=O)c2ccncc2)o1`, under setting [1], the AC50 is 10 µM [rising, partial curve, poor fit].
On to `Cn1c(C(=O)NCc2ccc3c(c2)OCO3)cc2sccc21`, for which the AC50 under setting [1] is 3.55 µM [rising, single point].
On the same count and under the same terms, in the case of `Cc1ccc2cc(NC(=O)c3cccc(F)c3)ccc2n1` it was 10 µM [falling, partial curve, poor fit]; in that of `C=C(C)C1CC=C(C)/C(=N\NC(=O)CNc2cccc3ccccc23)C1` (stereo not drawn), 6.51 µM [rising, single point]; in that of `CCOC(=O)c1c(C)[nH]c(C)c1C(=O)COc1ccc(NC(=O)c2ccco2)cc1`, 23.1 µM [rising, partial curve].
For `CCOc1ccc(C(=O)OCC(=O)Nc2cccnc2Cl)cc1OCC`, the AC50 under setting [1] is 6.51 µM [rising, partial curve, poor fit].
Turning to `C/C(=N/NC(=O)c1ccco1)c1cccc(NC(=O)c2ccc(C)o2)c1`, the AC50 under setting [1] was 35.5 µM [falling, single point].
For the compound `COc1ccc(C)cc1S(=O)(=O)NCC(c1ccc2c(c1)OCO2)N1CCN(C)CC1` (stereo not drawn), the AC50 under setting [1] was 23.1 µM [falling, partial curve, poor fit].
As for `CCNC(=S)N/N=C(\C)c1cccc([N+](=O)[O-])c1`, the AC50 under setting [2] was 18.4 µM [falling, single point].
`COc1ccc(CNc2ccc(C)c(C)c2)c(OC)c1OC`: the AC50 under setting [1] was 3.55 µM [rising, full curve, poor fit].
Consider `COc1cccc(CNC(=O)Cn2ccc3cc(S(=O)(=O)N4CCCC4)ccc32)c1`, for which, under setting [1], the AC50 was 14.1 µM [rising, single point].
In the case of `COc1cc(C(=S)N2CCOCC2)ccc1OS(=O)(=O)c1ccccc1[N+](=O)[O-]`, under setting [1], the AC50 was 5.8 µM [rising, partial curve, poor fit].
As to `COCCCNCCCOc1ccc(Cl)cc1C(C)(C)C`, the AC50 under setting [1] is 1.46 µM [falling, full curve, poor fit].
For `COc1cccc(C2c3[nH]c4ccccc4c3C[C@H]3C(=O)N(C4CCN(Cc5ccccc5)CC4)CC(=O)N23)c1` (stereo partly drawn), the AC50 under setting [1] is 35.5 µM [falling, single point].
On to `COCCNC(=O)COC(=O)CSCc1nc2ccccc2s1`, for which, under setting [1], the AC50 was 1.12 µM [rising, partial curve, poor fit].
For the compound `Cc1ccc(S(=O)(=O)NNC(=S)Nc2c(Cl)cccc2Cl)cc1`, under setting [1], the AC50 is 7.08 µM [falling, partial curve, poor fit].
Consider `O=C(Nc1nc2nc(-c3ccccc3)cc(=O)n2[nH]1)c1ccc(F)cc1`, for which the AC50 under setting [1] was 16.4 µM [falling, partial curve, poor fit].
Regarding `O=C(NCCCN=C1NS(=O)(=O)c2ccccc21)c1ccc(S(=O)(=O)N2CCOCC2)cc1`, the AC50 under setting [1] is 14.6 µM [rising, single point].
As to `O=C(CSc1ncnc2ccccc12)Nc1cccc(S(=O)(=O)N2CCOCC2)c1`, the AC50 is 10 µM [falling, partial curve] under setting [1] and 20 µM [rising, partial curve, poor fit] under setting [2].
Consider `CCOC(=O)C1=C(C)N(c2ccccc2)C(=O)C1CC(=O)O` (stereo not drawn), for which the AC50 under setting [1] was 11.2 µM [falling, partial curve].
For the compound `Nc1ccc(Sc2cc(Cl)nc(N)n2)cc1`, the AC50 is 1.3 µM [rising, full curve, poor fit] under setting [1] and 2.91 µM [falling, partial curve, poor fit] under setting [2].
As for `O=C1/C(=C\c2ccc3ccccc3c2)CCCc2ccccc21`, under setting [1], the AC50 was 0.146 µM [falling, full curve, poor fit].
Take `Nc1nc(NCc2ccco2)nc(NC2CCCCC2)c1[N+](=O)[O-]`: the AC50 under setting [1] was 3.55 µM [rising, single point].
Regarding `COC(=O)c1ccc(NC(=O)c2nc(S(=O)(=O)Cc3cccc(C)c3)ncc2Cl)cc1`, the AC50 under setting [1] is 7.08 µM [falling, partial curve].
Consider `O=C(Nc1nnc(-c2ccc(Br)cc2)o1)C1=COCCO1`, for which, under setting [1], the AC50 is 29.1 µM [falling, single point].
The same measure, in the same setting: for `CC1(C)OC(=O)C(=Cc2ccc(-c3ccc(S(N)(=O)=O)cc3)o2)C(=O)O1` the value was 10 µM [rising, partial curve, poor fit]; for `Cc1ccc(-c2nnn(CC(=O)N(Cc3ccco3)C(C(=O)NC(C)(C)C)c3ccc(C)o3)n2)o1` (stereo not drawn), 2.82 µM [falling, partial curve, poor fit]; for `O=C1C(c2ccc(F)cc2)N(CCc2ccccc2)C(=O)CN1C1CCCCC1` (stereo not drawn), 3.16 µM [rising, partial curve, poor fit].
Take `CCOc1ccccc1NC(=O)CSc1nnnn1-c1ccccc1`: the AC50 under setting [1] was 1.84 µM [falling, full curve, poor fit].
On the same count and under the same terms, in the case of `CC(c1ccccc1)N1CCn2c(nc3cc(NC(=O)c4cccs4)ccc32)C1` (stereo not drawn) it was 5.17 µM [falling, full curve, poor fit]; in that of `CCOC(=O)c1ccc(N2C(=O)c3n[nH]c(C)c3C2c2ccc(OC)cc2)cc1` (stereo not drawn), 35.5 µM [falling, single point].
In the case of `Cn1nnnc1Sc1ncnc2scc(-c3ccc(C#N)cc3)c12`, the AC50 under setting [2] was 32.6 µM [falling, partial curve, poor fit].
`COc1ccc(N2C(=O)c3ccccc3NC2c2ccccc2O)cc1` (stereo not drawn): the AC50 under setting [1] was 14.1 µM [falling, single point].
With `CCOc1ccc(C(=O)N2CCCC2)cc1`, the AC50 under setting [1] was 13 µM [rising, partial curve, poor fit].
